The values that follow come from article PMC5517495, “Candidate SNP Markers of Familial and Sporadic Alzheimer's Diseases Are Predicted by a Significant Change in the Affinity of TATA-Binding Protein for Human Gene Promoters”.

By UniProt entry, the sequences of proteins in these tests, tags left out.
UniProt P20226, whole entry: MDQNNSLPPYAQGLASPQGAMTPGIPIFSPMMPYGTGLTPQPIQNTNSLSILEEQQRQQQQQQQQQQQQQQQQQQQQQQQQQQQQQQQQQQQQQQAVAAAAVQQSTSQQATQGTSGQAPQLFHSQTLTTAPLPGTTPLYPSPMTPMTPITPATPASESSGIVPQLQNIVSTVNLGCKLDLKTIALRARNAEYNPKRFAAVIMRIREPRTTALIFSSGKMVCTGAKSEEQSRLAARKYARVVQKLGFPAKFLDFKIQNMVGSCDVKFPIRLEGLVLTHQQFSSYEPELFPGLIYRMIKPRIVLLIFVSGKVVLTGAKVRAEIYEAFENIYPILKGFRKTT

This series deals with TATA-binding protein (TBP) (human) (UniProt P20226). In words: EMSA. As to conditions: 0.3 nM TBP titrated with ODN, value only in figure; EMSA: 20 mM HEPES-KOH pH 7.6, 5 mM MgCl2, 70 mM KCl, 1 mM EDTA, 100 ug/ml BSA, 0.01% NP-40 (printed 0.0.1%), 5% glycerol, 25 C; stopped-flow buffer not stated; recombinant protein; residues 1-339; label: 32P on both strands.

For at least one entry, the source does not settle the construct or the ends of the probe. At least one verdict was read from the data and is not stated in words by the source.

In the case of “CGCGGCGCTCTATATAAGTGGGCAGT (double strand) [TPI1 promoter rs1800202 ancestral allele (EMSA)]”, the binding result is listed as “binds”.
